The record followed here is PubChem BioAssay AID328 (DTP/NCI, 2004).

For this test, the system named is BDF1 mice, P388 leukemia ip, median survival T/C. Nature of the test: NCI In Vivo Anticancer Drug Screen. Data for tumor model P388 Leukemia (intraperitoneal) in B6D2F1 (BDF1) mice. As to conditions: T/C endpoint: median survival time, higher T/C = longer survival. The method, boiled down: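 Steps: implant the tumour, treat one group with compound and another with vehicle, record survival, then divide treated by control.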

[1] abbreviates: dose: 50.0 mg/kg/injection, schedule: Q04DX003 (ip), vehicle: Klucel (hydroxypropylcellulose) (HPC).
The mark [2] stands for this setting: dose: 75.0 mg/kg/injection, schedule: Q04DX003 (ip), vehicle: Klucel (hydroxypropylcellulose) (HPC).
Where [3] appears, read: dose: 6.25 mg/kg/injection, schedule: Q01DX009 (ip), vehicle: saline.
[4] abbreviates: dose: 12.5 mg/kg/injection, schedule: Q01DX009 (ip), vehicle: saline.
The mark [5] stands for this setting: dose: 25.0 mg/kg/injection, schedule: Q01DX009 (ip), vehicle: saline.
Setting [6] is: dose: 50.0 mg/kg/injection, schedule: Q01DX009 (ip), vehicle: saline with Tween-80.
Setting [7] is: dose: 100.0 mg/kg/injection, schedule: Q01DX009 (ip), vehicle: saline with Tween-80.
[8] abbreviates: dose: 100.0 mg/kg/injection, schedule: Q04DX003 (ip), vehicle: saline.
[9] abbreviates: dose: 200.0 mg/kg/injection, schedule: Q04DX003 (ip), vehicle: saline.
Setting [10] is: dose: 400.0 mg/kg/injection, schedule: Q04DX003 (ip), vehicle: saline.
[11] abbreviates: dose: 200.0 mg/kg/injection, schedule: Q01DX009 (ip), vehicle: saline with Tween-80.

The list does not hold the whole screen: its compounds were picked by chemical class. Other doses and runs of a compound may be missing. T/C gives the treated animals as a percentage of the vehicle group. Some entries give survivors of the animals treated and no T/C: the source holds a T/C of zero for them, seemingly a mark for toxic or unscored doses. Some survivor counts are full or nearly so, which does not show that the dose was tolerated: the source hardly ever lists a survival T/C far under the control, and the zero likely stands for such cases as well. Counts of survivors are from the toxicity check (mostly the fifth day) where no day follows; animals may have died later. Schedule codes are those of the source, read here as Q, the interval in days (D) or hours (H), X, the number of doses. Where survival is the endpoint, the PubChem record calls one and a half times the control and up active, and a quarter to a half above the control has no call in these data; cut-offs in other NCI protocols can differ. Some entries hold several experiments; the values are given in rising order. Some entries show no survivor count and are marked so; the dose need not have been tolerated. Some T/C values carry the count of animals alive at the toxicity check (mostly the fifth day); where neither a count nor a note follows, no animal had died by that day.

On to `CCOC(=O)COc1ccc(N(CCCl)CCCl)cc1`, for which the T/C by setting is: (dose: 0.92 mg/kg/injection, schedule: Q04DX003 (ip), vehicle: Klucel (hydroxypropylcellulose) (HPC)) 109 % of control; (dose: 1.3 mg/kg/injection, schedule: Q04DX003 (ip), vehicle: Klucel (hydroxypropylcellulose) (HPC)) 122 % of control; (dose: 2.1 mg/kg/injection, schedule: Q04DX003 (ip), vehicle: Klucel (hydroxypropylcellulose) (HPC)) 125 % of control; (dose: 3.1 mg/kg/injection, schedule: Q04DX003 (ip), vehicle: Klucel (hydroxypropylcellulose) (HPC)) 125 % of control; (dose: 4.8 mg/kg/injection, schedule: Q04DX003 (ip), vehicle: Klucel (hydroxypropylcellulose) (HPC)) 180 % of control; (dose: 7.2 mg/kg/injection, schedule: Q04DX003 (ip), vehicle: Klucel (hydroxypropylcellulose) (HPC)) 219 % of control. Further, the T/C (dose: 11.0 mg/kg/injection, schedule: Q04DX003 (ip), vehicle: Klucel (hydroxypropylcellulose) (HPC)) is 200 % of control; the T/C (dose: 16.0 mg/kg/injection, schedule: Q04DX003 (ip), vehicle: Klucel (hydroxypropylcellulose) (HPC)) is 212 % of control; the T/C (dose: 33.0 mg/kg/injection, schedule: Q04DX003 (ip), vehicle: Klucel (hydroxypropylcellulose) (HPC)) was 186 and 240 % of control; the T/C under setting [1] is 95 and 163 % of control; the T/C under setting [2] was 127 % of control. The survivor count under setting [2] was 4 of 6.
Consider `O=C(Nc1ncc([N+](=O)[O-])s1)c1cc([N+](=O)[O-])cc([N+](=O)[O-])c1`, for which the T/C is, setting by setting: under setting [3], 92 % of control; under setting [4], 99 % of control; under setting [5], 100 % of control; (dose: 50.0 mg/kg/injection, schedule: Q01DX009 (ip), vehicle: saline) 103 % of control.
Regarding `CN(C)Cc1cccs1.O=[N+]([O-])c1cc([N+](=O)[O-])c(O)c([N+](=O)[O-])c1`, the T/C is, setting by setting: under setting [6], 108 % of control [survivor count not shown]; under setting [7], 108 % of control [survivor count not shown]; (dose: 100.0 mg/kg/injection, schedule: Q04DX003 (ip), vehicle: saline with Tween-80) 95 % of control [survivor count not shown]; (dose: 200.0 mg/kg/injection, schedule: Q04DX003 (ip), vehicle: saline with Tween-80) 108 % of control [survivor count not shown].
As for `NP(=O)(O)N(CCCl)CCCl`, the T/C by setting is: (dose: 50.0 mg/kg/injection, schedule: Q04DX003 (ip), vehicle: saline) 187 % of control; (dose: 90.0 mg/kg/injection, schedule: Q04DX003 (ip), vehicle: saline) 222 and 268 % of control; under setting [8], 225 % of control; (dose: 133.0 mg/kg/injection, schedule: Q04DX003 (ip), vehicle: saline) 259 [5 of 6 alive] and 272 % of control; under setting [9], 177, 250, 272 % of control. The survivor count was 0 of 6 (dose: 300.0 mg/kg/injection, schedule: Q04DX003 (ip), vehicle: saline) and 1 of 6 under setting [10].
`CC(C)OP(C)(O)=S` (configuration not stated): the T/C was 95 % of control (dose: 12.5 mg/kg/injection, schedule: Q01DX005 (ip), vehicle: saline); 97 % of control (dose: 25.0 mg/kg/injection, schedule: Q01DX005 (ip), vehicle: saline); 103 % of control (dose: 50.0 mg/kg/injection, schedule: Q01DX005 (ip), vehicle: saline).
For `NC(Cc1ccc(N(CCCl)CCCl)c(Cl)c1)C(=O)O` (configuration not stated), the T/C (dose: 0.18 mg/kg/injection, schedule: Q04DX003 (ip), vehicle: saline) is 170 % of control; the T/C (dose: 0.26 mg/kg/injection, schedule: Q04DX003 (ip), vehicle: saline) was 155 % of control; the T/C (dose: 0.4 mg/kg/injection, schedule: Q04DX003 (ip), vehicle: saline) is 130 and 160 % of control; the T/C (dose: 0.6 mg/kg/injection, schedule: Q04DX003 (ip), vehicle: saline) is 161 % of control; the T/C (dose: 0.9 mg/kg/injection, schedule: Q04DX003 (ip), vehicle: saline) was 176 and 200 % of control; the T/C (dose: 1.4 mg/kg/injection, schedule: Q04DX003 (ip), vehicle: saline) is 230 % of control. The T/C was 230 % of control (dose: 2.2 mg/kg/injection, schedule: Q04DX003 (ip), vehicle: saline); 230 and 272 % of control (dose: 3.3 mg/kg/injection, schedule: Q04DX003 (ip), vehicle: saline); 272 % of control (dose: 5.0 mg/kg/injection, schedule: Q04DX003 (ip), vehicle: saline); 272 % of control [5 of 6 alive] (dose: 7.5 mg/kg/injection, schedule: Q04DX003 (ip), vehicle: saline).
For `O=[N+]([O-])N1CN([N+](=O)[O-])CN([N+](=O)[O-])C1`, the T/C by setting is: under setting [3], 96 % of control; under setting [4], 99 % of control. In addition, the survivor count under setting [5] is given as 2 of 6.
For `ClCCN(CCCl)B1OCCO1`, the T/C runs as follows: (dose: 0.37 mg/kg/injection, schedule: Q01DX005 (ip), vehicle: saline) 133 % of control; (dose: 0.75 mg/kg/injection, schedule: Q01DX005 (ip), vehicle: saline) 125 % of control; (dose: 1.5 mg/kg/injection, schedule: Q01DX005 (ip), vehicle: saline) 150 % of control; (dose: 1.5 mg/kg/injection, schedule: Q01DX009 (ip), vehicle: saline) 186 % of control; (dose: 3.0 mg/kg/injection, schedule: Q01DX009 (ip), vehicle: saline) 218 % of control; (dose: 6.0 mg/kg/injection, schedule: Q01DX009 (ip), vehicle: saline) 245 % of control. Moreover, the T/C (dose: 20.0 mg/kg/injection, schedule: Q04DX003 (ip), vehicle: saline) is 113 % of control; the T/C (dose: 30.0 mg/kg/injection, schedule: Q04DX003 (ip), vehicle: saline) is 131 % of control; the T/C (dose: 45.0 mg/kg/injection, schedule: Q04DX003 (ip), vehicle: saline) is 131 % of control; the T/C (dose: 67.0 mg/kg/injection, schedule: Q04DX003 (ip), vehicle: saline) is 161 % of control; the T/C under setting [8] is 159 and 196 % of control; the T/C (dose: 150.0 mg/kg/injection, schedule: Q04DX003 (ip), vehicle: saline) is 223 % of control.
Take `NCCNCCCl`: the T/C reads like this: under setting [7], 90 % of control; under setting [11], 90 % of control.
`NNC(=O)NP(=O)(NC(=O)NN)NC(=O)NN`: the T/C (dose: 25.0 mg/kg/injection, schedule: Q01DX009 (ip), vehicle: saline with Tween-80) was 100 % of control; the T/C under setting [6] was 110 % of control; the T/C under setting [7] was 117 % of control. Moreover, the survivor count under setting [11] is listed as 4 of 6.
With `Cc1cc(C)c2ccccc2n1.O=[N+]([O-])c1cc([N+](=O)[O-])c(O)c([N+](=O)[O-])c1`, the T/C under setting [1] is 104 % of control [survivor count not shown]; the T/C (dose: 100.0 mg/kg/injection, schedule: Q04DX003 (ip), vehicle: Klucel (hydroxypropylcellulose) (HPC)) is 104 % of control [survivor count not shown]; the T/C (dose: 200.0 mg/kg/injection, schedule: Q04DX003 (ip), vehicle: Klucel (hydroxypropylcellulose) (HPC)) is 100 % of control [survivor count not shown].
`NC1=NCCN1[N+](=O)[O-]`: the T/C is 100 % of control under setting [8] and 105 % of control [5 of 6 alive] under setting [9]. In addition, under setting [10], the survivor count is recorded as 2 of 6.
